Data published in PMC7819943, “Rice protein-binding microarrays: a tool to detect cis-acting elements near promoter regions in rice”.
Some of the results follow.

Each sequence was assayed against T1, OsSMF1 (Oryza sativa, UniProt Q6ZLB0 1-436) (assay: protein-binding microarray (RPBM); PBS, 2% BSA, 51.3 ng/ul salmon testes DNA, 50 uM zinc acetate, 200 nM TF, 25 C, 1 h; high values mean tight binding). Details: protein: recombinant; tags: N-terminal polyhistidine and DsRed monomer fusion (pET32a); chain copies: 2; label: CyDye5-dUTP incorporated in the synthesized complementary strand; 3' TTTTT single-stranded linker to array surface; dsDNA, one strand shown.
T1 sequence: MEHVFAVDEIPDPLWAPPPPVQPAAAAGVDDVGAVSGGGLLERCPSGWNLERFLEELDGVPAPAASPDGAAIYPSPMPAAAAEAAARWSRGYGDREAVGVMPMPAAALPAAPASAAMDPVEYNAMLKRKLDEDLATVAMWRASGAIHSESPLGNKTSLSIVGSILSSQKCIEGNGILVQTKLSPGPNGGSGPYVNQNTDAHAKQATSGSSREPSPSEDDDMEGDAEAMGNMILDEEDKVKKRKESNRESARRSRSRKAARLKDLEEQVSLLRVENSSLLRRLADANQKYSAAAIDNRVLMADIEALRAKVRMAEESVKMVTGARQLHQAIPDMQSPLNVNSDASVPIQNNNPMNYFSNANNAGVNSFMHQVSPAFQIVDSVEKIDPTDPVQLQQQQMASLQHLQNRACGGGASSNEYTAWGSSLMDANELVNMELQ
Method in brief: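 Per-feature fluorescence intensity (arbitrary units), read on an Axon 4000B scanner, is the binding signal. Transcription factors carrying an N-terminal polyhistidine tag and DsRed fusion were expressed in E. coli BL21-CodonPlus and purified on Ni–NTA. A custom Agilent array, made double-stranded by primer extension with Cy5-dUTP and blocked with 2% BSA, was incubated with 200 nM protein in PBS, 2% BSA, salmon testes DNA and 50 µM zinc acetate at 25 °C for 1 h and then washed.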

| Sequence | binding signal |
| --- | --- |
| TCTTGCACTACACATCAGATGATGATTATATGTATTACGTCGGAGTCACCTAGTGCAG | 4920 fluorescence intensity (a.u.) |
| GGTGACGTCACTGCTCATTAAACCAACCAAGACCAAGTGTCGGAGTCACCTAGTGCAG | 7860 fluorescence intensity (a.u.) |
| CACTTTAATACTCCCGTCTATCTAGATTCATTGTACTAAGCGGAGTCACCTAGTGCAG | 3460 fluorescence intensity (a.u.) |
| CCAAAAGGCAGTATTTAGGTGCCGTACAGTGACTGCACGACGGAGTCACCTAGTGCAG | 3320 fluorescence intensity (a.u.) |
| CGGCTAAGTCAGCGTGTGACCCACGTGGGACCTATATGTCCGGAGTCACCTAGTGCAG | 7200 fluorescence intensity (a.u.) |
| CGGCAGTTGATGACGCGCCGCCGTATTTGGAAGGGAGCTCCGGAGTCACCTAGTGCAG | 4100 fluorescence intensity (a.u.) |
| CTGCATCTACTGCTGCTGACAGCGGATCCTCTCCCTCGCGCGGAGTCACCTAGTGCAG | 4720 fluorescence intensity (a.u.) |
| TTTTATCCGATGTGGTGGCTGAGTCAGCGTGGGACCCACACGGAGTCACCTAGTGCAG | 18400 fluorescence intensity (a.u.) |
| TGCACTGAACCAAGTGTAATGCCGTCAAGATCATGATTGGCGGAGTCACCTAGTGCAG | 3140 fluorescence intensity (a.u.) |
| CGATAAGCGTCGATTTGCAAGGGTGGTTCGTGGGCGAATGCGGAGTCACCTAGTGCAG | 3980 fluorescence intensity (a.u.) |
| CGCGTCGCTACGTGGTCACGCGAACACCTGCACTGCAGTACGGAGTCACCTAGTGCAG | 3360 fluorescence intensity (a.u.) |
| GCTATTTATCTCATATGATGTCTTGGATGTTGTGTAGAAACGGAGTCACCTAGTGCAG | 40600 fluorescence intensity (a.u.) |
| TTTTCAGCTTGGGCTACGTCAGATTGCCGTCCCTTGAAGCCGGAGTCACCTAGTGCAG | 5310 fluorescence intensity (a.u.) |
| GGTTTTAGAGTACGGTTTTGCTGACATGGGGCTTTGACCCCGGAGTCACCTAGTGCAG | 7070 fluorescence intensity (a.u.) |
| GCGTGCCTCCGTTTTGCACAGTCATGCATGTCTTTACAGTCGGAGTCACCTAGTGCAG | 6160 fluorescence intensity (a.u.) |
| TCCGTCATACAACCCAAACCTCCGTCATGCCTCAACCATACGGAGTCACCTAGTGCAG | 3250 fluorescence intensity (a.u.) |
| TTCCGCTGTGGCGGCGTCCCAATGTCCCACCCACGTAGCCCGGAGTCACCTAGTGCAG | 4440 fluorescence intensity (a.u.) |
| AGATGGGTCACCTCGCCGGCGGAAAGGAGACGACACGTTGCGGAGTCACCTAGTGCAG | 4730 fluorescence intensity (a.u.) |
| CGCTAGCTTTATTTAAAATGGAAAGGACACATCACACACTCGGAGTCACCTAGTGCAG | 3940 fluorescence intensity (a.u.) |
| GAACTAATCGGCAGTTGGCCCACGCCCTCGCCATGTGTCCCGGAGTCACCTAGTGCAG | 3480 fluorescence intensity (a.u.) |
| GAATAAAAGTTCAACATACACGTGTTAATTTCTGATACTCCGGAGTCACCTAGTGCAG | 7090 fluorescence intensity (a.u.) |

| Sequence | binding signal |
| --- | --- |
| TTGATCATCAGAAATAAATGCCAGTGAGAAAACAGCATGGCGGAGTCACCTAGTGCAG | 30700 fluorescence intensity (a.u.) |
| GTGAGAACTGAGAGGAGCGTCGGAAGAAGACCGGAAGAAGCGGAGTCACCTAGTGCAG | 4580 fluorescence intensity (a.u.) |
| AAAGCAACCAGTTACCATGACTATGCACCCGACACCTGGCCGGAGTCACCTAGTGCAG | 3960 fluorescence intensity (a.u.) |
| TTTCGACACCGATAGGCTTCGTCACGACGGGTTTTGTCCACGGAGTCACCTAGTGCAG | 4570 fluorescence intensity (a.u.) |
| GGTGACTCTGAAACTGGAGATGCTCCAAGCAACAGAGCCACGGAGTCACCTAGTGCAG | 3810 fluorescence intensity (a.u.) |
| ATAATAATTTTAAAATAAGATGATGAGTCAAACGTTGTATCGGAGTCACCTAGTGCAG | 5260 fluorescence intensity (a.u.) |
| TGGTCGCGTCCAGTCAGCTCGTCTGCCTTGGCCCGCAGCCCGGAGTCACCTAGTGCAG | 6300 fluorescence intensity (a.u.) |
| TTAATTGATCCATATATTTCGCAGATTCTTGTGTTCTTGCCGGAGTCACCTAGTGCAG | 14300 fluorescence intensity (a.u.) |
| TATTACTTTGCTGTTTAACTTTGATTTCTGACACTAACATCGGAGTCACCTAGTGCAG | 3410 fluorescence intensity (a.u.) |
| ATTGAGCCAGCCGTTATCCAATACAATCGTGACACGTTGTCGGAGTCACCTAGTGCAG | 5610 fluorescence intensity (a.u.) |
| CGTGGCCCGTGTGGCCCGCTTCCACAACCTGCGGCCGGCGCGGAGTCACCTAGTGCAG | 18800 fluorescence intensity (a.u.) |
| GCGGCGGAGGAAGAGGAAGAGAAGGCGATAGATCTGGTGCCGGAGTCACCTAGTGCAG | 33400 fluorescence intensity (a.u.) |
| CCAAAGCTTACTCACCAGTCACAACAAAACTTTTACATAACGGAGTCACCTAGTGCAG | 3470 fluorescence intensity (a.u.) |
| TTCTCTACCAGCGGCAGCGGCGGCTGGTAGGGAGGAGGAGCGGAGTCACCTAGTGCAG | 4860 fluorescence intensity (a.u.) |
| TCGTCTCCGCCTCCGGCTTCCCCTATCCATTCCCCTCGCCCGGAGTCACCTAGTGCAG | 3540 fluorescence intensity (a.u.) |
| CCACCACCGAGCACCGTGGCCGCGTGTGGCGCGCGTGTACCGGAGTCACCTAGTGCAG | 4200 fluorescence intensity (a.u.) |
| GCGAGGATTCTTCGCCGACTGCTTCGTGTCATCTCGTCTCCGGAGTCACCTAGTGCAG | 4140 fluorescence intensity (a.u.) |
| TTTCGGCCGAAGGCGACGTGACGTAGCCACTAGTAGATCTCGGAGTCACCTAGTGCAG | 6150 fluorescence intensity (a.u.) |
| AATCTAACAATGCTTCGGGTGGTGTGGGTGATTTGGTTCACGGAGTCACCTAGTGCAG | 3760 fluorescence intensity (a.u.) |
| ACCGCGCTGACTAGACCAGCAGTCCAGCACACAACACTAGCGGAGTCACCTAGTGCAG | 5130 fluorescence intensity (a.u.) |
| GACACGCGAGGGACCTCATCGCCCCAACTAATCCGCTTTGCGGAGTCACCTAGTGCAG | 34900 fluorescence intensity (a.u.) |

Some of the entries above, reformatted:
AGATGGGTCACCTCGCCGGCGGAAAGGAGACGACACGTTGCGGAGTCACCTAGTGCAG
  binding signal: 4730 fluorescence intensity (a.u.)
CGCTAGCTTTATTTAAAATGGAAAGGACACATCACACACTCGGAGTCACCTAGTGCAG
  binding signal: 3940 fluorescence intensity (a.u.)
